# Hit rate of the full screen: of about 53,000 sequences, about 3,700 (7%) were called active.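 How the source made its calls: active means gene knockdowns whose robust z-score for IL-1 alpha signal is at least 2 or at most -2, so actives lie on both sides; inactive means the rest.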 This is one part of the list.
# Test: Components of the Cytosolic LPS Sensing Pathway: Gene Identification via Genome-wide siRNA Screen;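 further: robust z of the log signal after scaling to non-targeting control siRNA wells of the plate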
# Conditions: RAW264.7 macrophages, IL-1a HTRF, actives lie on both sides, screened at 100 nM (by protocol), cells primed 5 h with Pam3CSK4 first
# Method in brief: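 IL-1a HTRF of supernatants after 24 hour LipidA transfection of Pam3CSK4-primed (5 hours) RAW264.7 cells, 48h post-siRNA transfection (100 nM). Scores: percent of plate negative-control median, then log-based robust z-score.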
row,Sequence,z-score
1,GCAUUUUAAUGCGCCAGUUTT against Atp2c1,inactive: -0.164
2,GGCUAUGAAGCAGUACAAGTT against Alyref2,inactive: 0.135
3,GCGAGUGGAACAGGAAUAUTT against Tmem63b,inactive: -0.137
4,AGACCGACGUGAAAGAGGATT against Hand2,inactive: -0.985
5,GGAGUGUGCUCAAUACACATT against Psmc3ip,inactive: 0.349
6,CCAAGGGAAGAUUCAAAUUTT against Abcc8,active: 2.29
7,CCAACAGAACCAAUAAAGCTT against Btbd9,inactive: -0.354
8,CCAUGAAUGAAGAUCUGUUTT against Taar7a,inactive: -1.69
9,GCCUCCAGUUGUGAAGUUGTT against Klrg1,inactive: 0.451
10,GAAAGAAACGGCAGAUUGCTT against Vmn2r122,inactive: 0.133
11,GGACUUGAAAGACCUUGGATT against Map2k4,inactive: 0.0565
12,GGCCAAUAAUGUGUUUCGUTT against Cmpk2,inactive: -0.632
13,GCGUGAACCUCCUUCUUGATT against Ramp3,inactive: -1.29
14,GGGUUUCAACCGUCACCUGTT against Pygl,inactive: -1.89
15,CCUCUAAAUCCUGAAGUGUTT against Gpat4,inactive: -0.213
16,GCAGUUCAUGUCCUGAAUATT against Olfr308,inactive: -1.49
17,GGUUAUUUAGCUAGCUUAGTT against Capza2,inactive: -0.328
18,GCUAGUUGAUAGUCAGAUATT against Tbrg4,inactive: 0.985
19,GCAAUCAAGCUUGAAAGUUTT against Dusp4,inactive: 0.764
20,GGACUUAUGUGACUUAUGUTT against Plet1,inactive: -0.585
21,GGUAUUGAGUAUCUUAGGUTT against Atf7,inactive: -0.543
22,GCAACACAGUAUGUACAAUTT against Dsg4,inactive: 1.36
23,CGUAGGUUUUAUAACAUGUTT against Tead3,inactive: 0.264

row,Sequence,z-score
1,CCUUCACAUAAGUUUCUGUTT against Nuak2,inactive: 0.575
2,GCUGCAUCGACAUAUCAGATT against Tle2,inactive: 0.628
3,CGAAUUAUGGCACCGUCAATT against P2rx7,inactive: -0.647
4,GGGAUAAUGCAUGUGAAAATT against Pdk3,inactive: -0.292
5,GGCUGAGUGAAUUGGGAAUTT against Olfr419,inactive: 1.28
6,CCAAUAGAGAUGCAAAUCATT against Nek6,inactive: 0.0788
7,GGCUACAAGAGCUUGCUCUTT against Dna2,inactive: 0.453
8,GGAGCUCUGUGAGAACGAUTT against Kmt5b,inactive: 0.672
9,CGAACAUUCGGAAAUGUCATT against Ifnb1,inactive: 0.259
10,GUUUACCUCAGCUGUUUUCTT against Olfr495,inactive: 0.157
11,GGACAUGAGUGUCAAUUCUTT against Fam131b,inactive: -1.02
12,GCUCCUCCAUCAGUUAGAUTT against Ube2v2,inactive: -1.06
13,GGAUUCAUAAACUUGUGUGTT against Atic,inactive: 0.274
14,GGGUGUCUUACACCUUACATT against Sertad2,inactive: -1.48
15,GCGAUGAUAAGUGCCUGGUTT against Stk31,inactive: -1.58
16,CGAAGCACAUAUCUUUGAUTT against Zfp41,inactive: 0.444
17,GCACACUACAACGUAUCACTT against Stpg2,inactive: 1.31
18,GGUCUACGUAGAGGAGCUGTT against Mrpl28,inactive: 1.04
19,CCUGUAACCAGUAUAAAUATT against Fmo3,inactive: -0.132
20,GGGCAAAUGAAAACAAGAATT against 4933434M16Rik,inactive: -1.11
21,GGAAACCAUUGGUUUAUAATT against 9230109A22Rik,inactive: -0.737
22,GGGUGACCUAAUCCAGUGUTT against Neurog3,active: 2.5
23,CGAUACAGGACCGAAGGAGTT against Fhad1,inactive: -0.196

# Some of the entries so far, as tab-separated lines:
row	Sequence	z-score
15	CCUCUAAAUCCUGAAGUGUTT against Gpat4	inactive: -0.213
16	GCAGUUCAUGUCCUGAAUATT against Olfr308	inactive: -1.49

# Continuation:

row,Sequence,z-score
1,GCUCAUCUCGAUUUGACUGTT against Cln3,inactive: -1.67
2,GGAUAGCUUCCUUCAGGUGTT against Zscan22,inactive: -0.817
3,GGAAGAGGAGGGAAGGAUCTT against Robo3,inactive: 0.378
4,GGAUGAAGUUUACCACCUGTT against Ptgir,inactive: 0.158
5,ACCAACCUCAGUCCUUUUUTT against A530095I07Rik,inactive: -1.5
6,CCCUUAAAUCUGGAAGCAGTT against Mex3a,inactive: -1.23
7,GGUUUUCACCAAUCGGAUGTT against H2-T24,inactive: 0.835
8,GGCCUUGGCAAUUAUUUGUTT against Syap1,inactive: -0.0759
9,GGGAUAUUGGAGCAAAAAATT against Sbno1,inactive: -1.23
10,GGCAGAAGUUACAAAAGAATT against Selenos,inactive: -1.07
11,GCGCGAGGAAUUGAAACUCTT against Gna15,inactive: 1.18
12,GGAUUUUGACAGUCUGUGUTT against Endou,inactive: -0.438
13,CCUCACGGCCUUAUAUCUCTT against Fmod,inactive: -1.8
14,GGACUUGAACUGAAAAGUUTT against D830013H23Rik,inactive: 1.01
15,GGACUGAAACUAGGUAGGGTT against Dact2,inactive: 0.138
16,GGCUUCAGUGAUGAAUGAATT against Tor1aip1,inactive: -0.594
17,GGCGAGUGUGCAGAAGUUUTT against Ifi44,inactive: 1.43
18,GCAAGAGACCUUGUUAUAGTT against Cttnbp2nl,inactive: -0.426
19,GGAUGUGGAGAUGAAAGAGTT against Psmd3,inactive: -1.52
20,GCCUAGGUGACCUAAACUATT against D830014E11Rik,inactive: 0.0483
21,GGUGGGAAGAGUUUCAUCATT against Tesk2,inactive: 0.58
22,GGAUGAUGCUCGUUCUCAGTT against Ankar,inactive: -0.248

# Looked up one by one from the list above, 2 records:
row,Sequence,z-score
8,CCAUGAAUGAAGAUCUGUUTT against Taar7a,inactive: -1.69
1,CCUUCACAUAAGUUUCUGUTT against Nuak2,inactive: 0.575

# From PubChem BioAssay AID1508600 (Functional Genomics Laboratory (NCATS/FGL), 2020)
